Experimental data: PubChem BioAssay AID1224826 (NIAID, 2016)
Aim: 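Regulators of Tlr4 signalling leading to Tnf-alpha expression in macrophages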 (primary screen). Cell system: RAW264.7 G9 macrophages from mouse bearing reporters for p65 (GFP) and the Tnf promoter (mCherry). Reagents: siRNA pool against mouse genes, 100 nM. Time to read-out: 16 h of LPS stimulation, after 2 days of siRNA transfection. Conditions: bacterial lipopolysaccharide (Salmonella minnesota R595), 10 ng/ml. Detection: 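Imaged Tnf reporter mCherry in nuclei, minus background, normalised per plate to the median and expressed as robust z-scores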. Direction: Tnf reporter robust z-score: higher = stronger Tnf promoter reporter signal after LPS. Active means: 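Called active when robust z-score is at most -1.3, matching the median of the Tlr4 knock-down control, or over 3; control wells and wells with under 50 cells never active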. Calls: active = Tnf reporter clearly lowered or raised; inactive = no clear change in Tnf reporter.
The deposit covers about 17,000 reagents; below is an unselected part. About 1,110 of them (6.6%) were called active. 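Active means lowered or raised reporter signal; replicate intensities are raw and not normalised per plate.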 Unmarked entries are inactive. Not all columns of the deposit are shown.

Knock-down of Rbbp9 [SID315470423] gave: Tnf reporter robust z-score 0.56; fewer than 50 cells in well enough cells in well.
After knock-down of Ezr [SID315470002] the results were Tnf reporter robust z-score -0.8; fewer than 50 cells in well enough cells in well.
Silencing of Tm2d1 [SID315476018] resulted in: Tnf reporter robust z-score 0.66; fewer than 50 cells in well enough cells in well.
With knock-down of Map2k3os [SID315470317], the screen gave Tnf reporter robust z-score -0.65; fewer than 50 cells in well enough cells in well.
After knock-down of Tcl1b4 [SID315470593] the results were fewer than 50 cells in well fewer than 50 cells per well; well left out of calls.
Knock-down of Aplp2 [SID315465462] gave: fewer than 50 cells in well fewer than 50 cells per well; well left out of calls.
Rgs9 [SID315468971] scored Tnf reporter robust z-score -0.6; fewer than 50 cells in well enough cells in well.
With knock-down of Paqr8 [SID315474911], the record shows fewer than 50 cells in well fewer than 50 cells per well; well left out of calls.
Slc8b1 [SID315477223] gave Tnf reporter robust z-score 3.69 (active); fewer than 50 cells in well enough cells in well.
After knock-down of Prss37 [SID315473169], the screen gave Tnf reporter robust z-score -0.12; fewer than 50 cells in well enough cells in well.
After knock-down of Cacybp [SID315465721], the record shows Tnf reporter robust z-score -0.15; fewer than 50 cells in well enough cells in well.
Against Pramel3a [SID315475846], the entry reads Tnf reporter robust z-score 1.5; fewer than 50 cells in well enough cells in well.
For Onecut2 [SID315478427], the values are Tnf reporter robust z-score -1.28; fewer than 50 cells in well enough cells in well.
After knock-down of Fam78a [SID315479562] the results were Tnf reporter robust z-score 2.01; fewer than 50 cells in well enough cells in well.
Silencing of Gnb3 [SID315466955] gave: Tnf reporter robust z-score 0.46; fewer than 50 cells in well enough cells in well.
For Ccl8 [SID315469144], the entry reads Tnf reporter robust z-score -1.06; fewer than 50 cells in well enough cells in well.
Knock-down of Pcdh8 [SID315468406] came out at: Tnf reporter robust z-score 0.76; fewer than 50 cells in well enough cells in well.
Zfpm2 [SID315470142] showed Tnf reporter robust z-score 1; fewer than 50 cells in well enough cells in well.
Fastk [SID315472520] gave Tnf reporter robust z-score 0.59; fewer than 50 cells in well enough cells in well.
For Or5d35 [SID315480487], the entry reads Tnf reporter robust z-score -0.98; fewer than 50 cells in well enough cells in well.
Knock-down of Mat1a [SID315465407] resulted in: Tnf reporter robust z-score 0.04; fewer than 50 cells in well enough cells in well.
